This test in a line: qHTS Assay for Lipid Storage Modulators in Drosophila S3 Cells.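 As to cell number change: cells counted by Cell Tracker Red CMTPX staining in the red channel.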 As to conditions: BODIPY lipid droplet fluorescence, 18-24 h; for cell number change: measured here: cell count max response, cells fed with added oleic acid. In short, it runs like this:
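Drosophila S3 cells loaded with oleic acid (400 uM, as added) and compounds at several concentrations; lipid droplets imaged by 488-nm laser-scanning cytometry, 500–530 nm intensity and object ratio to cell channel. Percent activity normalized to 20 uM Triacsin C.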
Background: qHTS replaces the single test concentration by a dilution series.

Where [1] appears, read: measured here: cell number channel AC50, cells fed with added oleic acid.
[2] abbreviates: measured here: lipid fluorescence (Fed channel) AC50, cells fed with added oleic acid.

The other results are listed elsewhere or left out. Further columns of the screen follow, without active or inactive calls. Compounds called inactive in the main read-out are mostly missing here. Words in brackets tell the shape of the fitted curve; partial curves, single points and poor fits give uncertain potencies.

What is called AC50 is the concentration giving half of the maximal activity seen. `CC1(C)CC(N2CCCC2)=CC(=[N+]2CCCC2)C1`: the cell number change is -38.4%. Also, the AC50 under setting [1] was 29.1 µM [falling, single point]. Moreover, under setting [2], the AC50 is 32.6 µM [falling, single point].
Turning to `CCN1C(=O)[C@@H]2[C@H](C1=O)[C@@H]1C(=O)Nc3ccccc3C(=O)N1[C@@H]2c1ccc(OC)cc1`, the cell number change was -7.98%.
As to `c1ccc(-c2cn(-c3ccccc3)c3[n+]2CCCS3)cc1`, the cell number change is -29.7%.
On to `CCCNC(=O)CC(NS(=O)(=O)c1ccc(OC)cc1)c1ccco1` (centres undefined), for which the cell number change was -0.761%. Moreover, the AC50 under setting [2] is 3.26 µM [falling, single point].
On to `CCN(CC)CCCNC(=O)c1ccccc1C`, for which the cell number change was -14.8%. In addition, the AC50 under setting [2] is 0.651 µM [falling, full curve].
For `COC(CNC(=O)CCCn1nnnc1CN1CCOCC1)c1cccs1` (centres undefined), the cell number change was 15.1%. Further, the AC50 under setting [2] is 0.651 µM [rising, full curve, poor fit].
On to `ONC(=Nc1ccccc1Cl)c1ccccc1Cl`, for which the cell number change is -33.6%. Under setting [1], the AC50 is 0.184 µM [falling, full curve]. In addition, the AC50 under setting [2] was 0.146 µM [falling, full curve].
Take `CCOc1ccc(-c2cc(N3C(=O)Nc4ccccc4N3O)n[nH]2)cc1`: the cell number change was -1.32%. Also, the AC50 under setting [2] is 20.6 µM [rising, single point].
Consider `COc1ccc(C(C)=O)c(Oc2ccc(S(=O)(=O)N3CCOCC3)cn2)c1`, for which the cell number change is -10.7%. Also, the AC50 under setting [2] was 29.1 µM [rising, single point].
In the case of `CCCCCCC(=O)N1CCC(c2nc3c(nnn3Cc3ccccc3Cl)c(=O)[nH]2)CC1`, the cell number change is -80%. Besides, the concentration at half-maximal activity (AC50) under setting [1] was 18.4 µM [falling, partial curve].
For the compound `COC(=O)C1=C(C)NC(=O)C1(NS(=O)(=O)c1ccc(NC(C)=O)cc1)C(F)(F)F` (centres undefined), the cell number change is 15.9%. Also, the concentration at half-maximal activity (AC50) under setting [2] is 29.1 µM [rising, single point].
Regarding `COCCNc1cc(C)c(C#N)c2nc3ccccc3n12`, the cell number change is 39.2%. Besides, the AC50 under setting [1] was 10.3 µM [rising, single point].
Consider `COc1ccc(CN2CCNC(=O)C2CC(=O)NC2CCOCC2)cc1C` (centres undefined), for which the cell number change came out at 4.14%.
Regarding `CC(=O)c1ccc(N2CCN(C(=O)CCC(=O)c3cccs3)CC2)cc1`, the half-maximal activity concentration (AC50) under setting [2] was 6.51 µM [rising, single point].
Consider `COc1ccc(NC(=O)Cn2c(CCC(=O)O)ccc2-c2ccccc2)cc1`, for which the cell number change is -17.7%. For the same compound, under setting [2], the AC50 was 0.13 µM [falling, full curve, poor fit].
Take `O=C(NCCc1ccc(Cl)cc1Cl)c1cncc(Br)c1`: the cell number change was -23.1%. The half-maximal activity concentration (AC50) under setting [1] was 0.731 µM [falling, full curve, poor fit].
With `COc1ccccc1C1SCCN1S(C)(=O)=O` (centres undefined), the cell number change is -3.8%.
`Fc1cccc(CCN2C(=S)NC[C@@H]2CC2CCCCC2)c1`: the cell number change was 8.28%. In addition, the half-maximal activity concentration (AC50) under setting [2] was 2.91 µM [rising, partial curve].
As to `COc1ccc(S(=O)(=O)N2CCC(C(=O)Oc3c(OC)cccc3OC)CC2)cc1OC`, the cell number change was -15.2%. Besides, under setting [2], the AC50 was 0.103 µM [falling, full curve, poor fit].
For the compound `Cc1ccc(C)c(N(C)C(=O)COc2cc(=O)n(C)c3ccccc23)c1`, the cell number change was -17.2%.
The same measure, in the same setting: with `COc1ccccc1CNC(=O)COc1ccc(C)cc1` the figure was 11.3%.
As for `Cc1nc2ncnn2c(C)c1CCC(=O)N1CCN(Cc2ccccc2)CC1`, the AC50 under setting [1] was 0.731 µM [rising, full curve, poor fit].
For `CC1=CCC(/C=N\Nc2nnc3c(n2)[nH]c2ccccc23)CC1` (centres undefined), the cell number change is -24.7%.
For `CCOC(=O)c1c(C)[nH]c(C(=O)C(C)Cl)c1C` (centres undefined), the cell number change was found to be 39.4%. The AC50 under setting [1] was 0.92 µM [rising, full curve].
As to `CSc1nc2ncc(C(=O)O)c(N)n2n1`, the cell number change is 5.92%. In addition, under setting [1], the AC50 was 2.31 µM [falling, partial curve, poor fit].
For `COc1cc(C(=O)Nc2nnc(C(F)(F)F)s2)c([N+](=O)[O-])cc1OC`, the cell number change is -47.4%. In addition, under setting [1], the AC50 was 1.03 µM [falling, full curve]. In addition, the AC50 under setting [2] is 20.6 µM [falling, single point].
With `O=[N+]([O-])c1ccc(Cl)cc1N/N=C/c1ccncc1`, the cell number change was -0.985%. Further, the AC50 under setting [2] is 0.326 µM [rising, partial curve, poor fit].
With `CCCCN(C)C(=O)C(Cc1ccccc1)NS(=O)(=O)c1ccc2c(c1)CCC(=O)N2` (centres undefined), the cell number change was -11.3%. For the same compound, the AC50 under setting [2] is 14.6 µM [falling, partial curve].
For `CC1(C)CC(=O)C2=C(C1)N(c1ccccc1)C(N)=C(C#N)C2c1ccsc1` (centres undefined), the cell number change is 47.7%. In addition, the AC50 under setting [1] was 2.91 µM [rising, full curve]. In addition, the AC50 under setting [2] is 2.59 µM [rising, full curve].
Regarding `O=C(CCC1CCCC1)N1CCN(S(=O)(=O)c2ccc(Br)cc2)CC1`, the cell number change is -9.81%. Besides, the AC50 under setting [2] was 8.2 µM [rising, partial curve].
Regarding `O=C(Nc1cccc(S(=O)(=O)N2CCOCC2)c1)C(c1ccccc1)N1CCCCC1` (centres undefined), the cell number change was 29.4%.
For the compound `Cc1ccc(S(=O)(=O)CCc2nc3ccccc3n2CCC#N)cc1`, the AC50 under setting [1] is 7.31 µM [falling, single point].
As for `CC(=O)c1ccc([N+](=O)[O-])cc1`, the cell number change turned out to be 9.38%. The AC50 under setting [1] was 0.517 µM [rising, partial curve]. For the same compound, the half-maximal activity concentration (AC50) under setting [2] was 23.1 µM [rising, single point].
`Cc1[nH]c(=O)[nH]c(=O)c1S(=O)(=O)NCCc1ccc(S(N)(=O)=O)cc1`: the cell number change was -189%. Further, the AC50 under setting [1] was 29.1 µM [falling, single point].
In the case of `CCOc1ccc(S(=O)(=O)NCCC(=O)NCC(c2ccccc2OC)N2CCCC2)cc1` (centres undefined), under setting [1], the AC50 is 6.51 µM [rising, single point].
Regarding `COc1cc(C(=O)NCCN2CCOCC2)cc(OC)c1OC`, the cell number change was -65.2%. For the same compound, the AC50 under setting [1] was 29.1 µM [falling, single point].
Turning to `CC(C)CN(C(=O)COC(=O)c1ccc(Br)cc1)c1c(N)n(Cc2ccccc2)c(=O)[nH]c1=O`, the cell number change was -39.7%. Further, under setting [1], the AC50 was 9.2 µM [falling, partial curve, poor fit]. Moreover, the AC50 under setting [2] is 9.2 µM [falling, partial curve].
Consider `CCOc1ccc2[nH]c(=O)c(CN(Cc3cccs3)Cc3nnnn3C(C)(C)C)cc2c1`, for which the cell number change was -33.4%. In addition, the AC50 under setting [1] is 18.4 µM [falling, single point]. Also, the AC50 under setting [2] is 29.1 µM [falling, single point].
On to `O=C(NCc1cccc(F)c1F)C1CCC(=O)N(C2CC2)C1` (centres undefined), for which, under setting [2], the AC50 was 4.11 µM [rising, single point].
Regarding `Cc1ccc(C)n1NC(=O)c1ccc(Cl)cc1`, the cell number change amounted to 20.7%. In addition, the AC50 under setting [2] is 0.58 µM [falling, single point].

The values above are taken from PubChem BioAssay AID2685 (National Center for Advancing Translational Sciences (NCATS), 2010).
